# Measured values published in PubChem BioAssay AID493014 (National Center for Advancing Translational Sciences (NCATS), 2011).
# Screen size: about 340,000 compounds; about 170 (0.05%) were called active. Inconclusive results, whose numbers are uncertain, are shown with a selection of clear calls. The call rests on the fitted dose curve; in most records, active means well fitted inhibition curve with a large enough effect in the signal ratio, with a control signal flat (not every such curve was filed as active); inconclusive means small, poorly fitted or top-dose-only effect, or effect the other way, or a change in a side signal; inactive means flat fitted curve, though single readings scatter; the % refers to the signal ratio. A potency beside an inconclusive call is a rough fit, not a confirmed value.
# Assay: qHTS Assay to Find Inhibitors of Chronic Active B-Cell Receptor Signaling;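 on activity change, negative = inhibition: plate controls were basal doxycycline-induced cells for no effect and cells given 10 µM MG132 for full effect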
# Settings: ABC-DLBCL IkBa-CBG/CBR reporter, luminescence ratio (green luciferase fused to IkBa over red control in TMD8 lymphoma cells), 4 h; activity change, negative = inhibition: at 46.1 µM (top of the series) unless noted
# Summary of the method: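 Concentration-response series (up to 46 uM) were applied to TMD8 dual-reporter cells for 4 h at 37C with doxycycline. Green/red ratio, after filter-overlap correction, defined %Activity; red signal alone was normalised to basal cells and zero luminescence.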
# Potency means the concentration at half of the fitted maximal effect.
Structure (SMILES),Potency,"activity change, negative = inhibition"
Nc1ccc(-c2nc3ccc(C(=O)O)cc3s2)cc1,"inconclusive: 1.16 µM [rising, full curve, poor fit]",
CC1CCc2c(sc(NC(=O)c3ccc(Cn4cc([N+](=O)[O-])cn4)o3)c2C#N)C1 (stereo unspecified),,inconclusive: 10.7%
COc1cccc(C(=O)Nc2c(C)n[nH]c2C)c1,,inconclusive: 6.74%
O=C(Nc1nc2c(F)cc(F)cc2s1)c1ccc2c(c1)OCCO2,,inconclusive: 26.4%
O=C(CSc1ccc(F)cc1)Nc1ccc(N2CCOCC2)cc1,,inconclusive: 4.52%
Cc1ccccc1-c1nnn(CC(=O)NCc2ccc3c(c2)OCO3)n1,,inconclusive: -19.5%
N/C(=N\c1nc2ccccc2o1)NC(=O)c1ccc(F)cc1,,inconclusive: -0.199%
CCN1CCC(Nc2ccnc3cc(Cl)ccc23)CC1,"inconclusive: 10 µM [falling, partial curve, poor fit]",
CC(C)CCC1(C)NC(=O)N(CC(=O)NCC(=O)Nc2ccc(F)c(F)c2F)C1=O (stereo unspecified),,inconclusive: 4.87%
COc1ccc(S(=O)(=O)Nc2cc3c4c(c2)CC(=O)N4CCC3)cc1C,"inconclusive: 16.4 µM [falling, partial curve, poor fit]",
Cn1c(=O)n(CC(=O)Nc2ccc(F)cc2)c2ccccc21,,inconclusive: 4.35%
Nc1cccnc1Oc1ccccc1F,"inconclusive: 25.1 µM [falling, partial curve, poor fit]",
O=C(O)c1ccc(N=NN2CCCC2)cc1,"inconclusive: 12.6 µM [falling, partial curve]",
N/C(=N\OC(=O)Cc1cccs1)c1cccc([N+](=O)[O-])c1,,inconclusive: 20.8%
CCCC1c2ccsc2CCN1C(=S)NC (stereo unspecified),,inconclusive: 14.8%
COC(=O)c1ccc(-c2ccc(OC)c([C@H]3[C@H]4C=CC[C@@H](C)[C@@H]4C(=O)N3Cc3ccccc3)c2)cc1,,inconclusive: -2.54%
O=C(c1ccc(CS(=O)c2ccccc2Cl)o1)N1CCN(c2ccccc2)CC1 (stereo unspecified),"inconclusive: 15.8 µM [falling, partial curve]",
O=C(Nc1ccc(-c2nc3ccccc3s2)c(O)c1)C1=COCCO1,,inconclusive: 12.5%
CC(C)CNC(=S)N1CCC(Cc2ccccc2)CC1,,inactive: -0.986%
O=C1CSc2ccc(S(=O)(=O)NCc3ccccc3Cl)cc2N1,,inactive: -10.3%
Cc1cc(-c2ccc(C)c(S(=O)(=O)NC(C)Cc3ccco3)c2)on1 (stereo unspecified),,inconclusive: -14.6%
CCN(CC)S(=O)(=O)c1cccc(NC(=O)C(=O)c2c(-c3ccccc3)cc3ccccn23)c1,"inconclusive: 3.66 µM [falling, single point]",
COc1ccc(-n2ccc3ccccc32)cc1,,inconclusive: 0.354%
CCOc1ccc(NC(=S)Nc2ccc3nsnc3c2)cc1,,inactive: 4.76%
O=C(NC(=S)Nc1ccc2c(c1)OCCO2)c1ccccc1F,"inconclusive: 35.5 µM [rising, single point]",
COc1ccccc1-c1ccc(=O)n(CC(=O)NC2CCc3ccccc32)n1 (stereo unspecified),"inconclusive: 35.5 µM [falling, single point]",

# Structures from the list above that contain an aryl methoxy group, in the order listed:
Structure (SMILES),Potency,"activity change, negative = inhibition"
COc1cccc(C(=O)Nc2c(C)n[nH]c2C)c1,,inconclusive: 6.74%
COc1ccc(S(=O)(=O)Nc2cc3c4c(c2)CC(=O)N4CCC3)cc1C,"inconclusive: 16.4 µM [falling, partial curve, poor fit]",
COC(=O)c1ccc(-c2ccc(OC)c([C@H]3[C@H]4C=CC[C@@H](C)[C@@H]4C(=O)N3Cc3ccccc3)c2)cc1,,inconclusive: -2.54%
COc1ccc(-n2ccc3ccccc32)cc1,,inconclusive: 0.354%
COc1ccccc1-c1ccc(=O)n(CC(=O)NC2CCc3ccccc32)n1 (stereo unspecified),"inconclusive: 35.5 µM [falling, single point]",

# Quoted at random: two entries already listed.
Structure (SMILES),Potency,"activity change, negative = inhibition"
Cc1ccccc1-c1nnn(CC(=O)NCc2ccc3c(c2)OCO3)n1,,inconclusive: -19.5%
COc1ccc(-n2ccc3ccccc32)cc1,,inconclusive: 0.354%

# Further structures:

Structure (SMILES),Potency,"activity change, negative = inhibition"
O=C(Nc1nnc(-c2ccc(Cl)cc2)o1)Nc1ccccc1Cl,,inactive: -3.25%
CCN(C(=O)Cn1c(=O)oc2ccccc21)c1cccc(C)c1,,inconclusive: -0.204%
COc1ccc(Nc2ncnc3scc(-c4ccc(OC)cc4)c23)cc1,"inconclusive: 14.6 µM [falling, partial curve, poor fit]",
Cn1ncc2c(NCc3ccc(Cl)cc3)ncnc21,"inconclusive: 35.5 µM [falling, partial curve, poor fit]",
COc1cccc(OC)c1NC(=O)c1nc2c(nnn2Cc2ccccc2Cl)c(=O)[nH]1,,inconclusive: 2.94%
CCc1cc(C(=O)NNC(=O)CCl)sc1C,"inconclusive: 35.5 µM [falling, single point]",
CCOc1ccc(C(=O)OCC(=O)Nc2ccc3c(c2)OCCO3)cc1OC,,inconclusive: 0.667%
CNC(=O)Nc1cc(C)nn1C,,inconclusive: -0.408%
CS(=O)(=O)c1nc(-c2ccc(F)cc2)cc(C(F)(F)F)n1,,inconclusive: 5.34%
c1ccc(-n2nnnc2-c2cnc(-c3cccnc3)nc2-c2cccs2)cc1,,inactive: -27.2%
CC1=C(C(=O)OC(C)C)C(c2ccsc2)NC(=O)N1C (stereo unspecified),,inactive: -3.29%
CCOc1ccc(N=c2cc(-c3ccc(OC)cc3)oc3ccccc23)cc1,,inconclusive: 16.3%
O=c1c2ccccc2nnn1COc1ccc(Cl)cc1Br,,inconclusive: 4.33%
O=C(CC1CCCC1)NNC(=O)c1ccc(Br)cc1,,inconclusive: 7.97%
CCCNC(=O)Cn1c(=O)/c(=C\c2ccc(-c3cccc([N+](=O)[O-])c3)o2)s/c1=C\C(=O)C(C)(C)C,,inconclusive: 3.63%
Cc1ccccc1C(=O)Nc1ccccc1,,inactive: -11.8%
O=C(CSc1cccc[n+]1[O-])NC(=O)c1ccc(OC(F)F)cc1,,inactive: 2.33%
COc1ccc2[nH]c(=O)c(CN(CC3CCCO3)C(=S)Nc3cccc(C)c3)cc2c1 (stereo unspecified),,inactive: 14.7%
CCOc1ccc(NC(=S)N(CCc2ccncc2)C(C)C)cc1,,inconclusive: 8.11%
COC(=O)c1[nH]c2ccc(C)cc2c1NC(=O)CN1CCN(c2ccccc2)CC1,"inconclusive: 13 µM [falling, partial curve, poor fit]",
CC(C)N(Cc1ccccc1)CC(O)COc1ccc(S(=O)(=O)N2CCOCC2)cc1Cl (stereo unspecified),,inconclusive: -8.55%
CCOC(=O)c1c(-c2ccc(C)o2)csc1NC(=S)NC(=O)c1cccs1,"inconclusive: 8.2 µM [activator, partial curve, poor fit]",
Oc1cc2c(cc1O)[C@H]1c3ccc(O)c(O)c3OC[C@@]1(O)C2,,inconclusive: 0.548%
CCOc1ccc2c(c1)-c1c(ssc1=S)C(C)(C)N2C,"inconclusive: 4.11 µM [rising, full curve, poor fit]",
O=C(N/N=C/c1cccs1)c1cc(-c2ccncc2)nc2ccccc12,"inconclusive: 5.8 µM [falling, partial curve, poor fit]",
